Consider one compound from patent US8895695B2, “Template-fixed beta-hairpin peptidomimetics with CXCR4 antagonizing activity” (priority 2003, dated 2014).

By UniProt entry, the sequences of proteins in these tests, tags left out.
UniProt P61073, whole entry: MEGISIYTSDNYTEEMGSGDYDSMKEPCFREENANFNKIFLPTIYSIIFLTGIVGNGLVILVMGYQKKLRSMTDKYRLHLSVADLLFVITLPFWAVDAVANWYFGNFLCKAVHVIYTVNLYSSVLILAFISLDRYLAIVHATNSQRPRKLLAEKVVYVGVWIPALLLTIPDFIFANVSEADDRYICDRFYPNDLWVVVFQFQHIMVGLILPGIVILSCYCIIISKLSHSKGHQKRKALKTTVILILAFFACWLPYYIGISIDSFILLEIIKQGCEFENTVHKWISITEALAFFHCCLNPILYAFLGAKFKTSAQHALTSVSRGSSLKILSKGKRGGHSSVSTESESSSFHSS

The structures appear in SMILES notation. pIC50: −log10 of the molar value.

The target of the assay is CXCR4 (Homo sapiens, UniProt P61073). The assay can be described thus: Ca2+-assay method 1: CXCR4-antagonizing activity. The assay is classed as cell-based. The arrangement: expressed in transfected cells. On the procedure: 2.2. Ca^2+-Assay: CXCR4-Antagonizing Activity of the Peptides.
The cells were washed free from Fura-2-AM with a platelet centrifuge and resuspended in 800 μl MSB containing 5 mM D-Glucose. The peptides to be administered were diluted to a 100 fold end concentration in MSB/0.2% PPL, and 8 μl were injected. […] Measurements were done under continuous stirring at 37° C. The signal intension was calibrated with 3 mM CaCl2/[…] lonomycin (maximal fura-2-acetoxymethylester saturation) and 10 μM MnCl2 (minimal Fura-2-acetoxymethylester saturation) and [Ca^2+]i-changes are presented in % fora-2-acetoxymethylester saturation. The rate of [Ca^2+]i-changes was calculated on the basis of the initial [Ca^2+]i-changes and plotted in dependence of chemokine concentration to obtain a sigmoidal curve and to determine the IC50 values.
Osmolarity: 310 mOsm adjusted with NaOH or HCl, adjusted with H2O or PBS.
MSB plus: 5 mM D-glucose in MSB (50 mg/50 mL).
Fura 2-acetoxymethylester: 1 mM stock solution in dimethylsulfoxide.

The pIC50 is the negative decadic logarithm of the IC50, by convention in mol/L. Low readings indicate a high IC50, high ones a low IC50. Compound `N=C(N)NCCC[C@@H]1NC(=O)[C@@H]2CSSC[C@H](NC(=O)[C@H](Cc3ccc4ccccc4c3)NC(=O)[C@H](CCCNC(=N)N)NC(=O)[C@H](CCCNC(=N)N)NC(=O)[C@H]3CCCN3C(=O)CNC1=O)C(=O)N[C@@H](Cc1ccc(O)cc1)C(=O)N[C@@H](CCCNC(N)=O)C(=O)N[C@@H](CCCCN)C(=O)N1CCC[C@@H]1C(=O)N1CCC[C@H]1C(=O)N[C@@H](Cc1ccc(O)cc1)C(=O)N[C@@H](CCCNC(=N)N)C(=O)N[C@@H](CCCNC(N)=O)C(=O)N2` [Ex. 51] gave a pIC50 of 8.72.
